Assay results taken from paper PMC5008806.
These are yes or no findings as the source states them, for the method shown. Binding seen in cells or lysates may run through a third protein. Some binding calls cover weakened binding; strength is not graded here.

Sequences of proteins named here, by UniProt entry; tags and fusion partners are left off.
UniProt Q02248: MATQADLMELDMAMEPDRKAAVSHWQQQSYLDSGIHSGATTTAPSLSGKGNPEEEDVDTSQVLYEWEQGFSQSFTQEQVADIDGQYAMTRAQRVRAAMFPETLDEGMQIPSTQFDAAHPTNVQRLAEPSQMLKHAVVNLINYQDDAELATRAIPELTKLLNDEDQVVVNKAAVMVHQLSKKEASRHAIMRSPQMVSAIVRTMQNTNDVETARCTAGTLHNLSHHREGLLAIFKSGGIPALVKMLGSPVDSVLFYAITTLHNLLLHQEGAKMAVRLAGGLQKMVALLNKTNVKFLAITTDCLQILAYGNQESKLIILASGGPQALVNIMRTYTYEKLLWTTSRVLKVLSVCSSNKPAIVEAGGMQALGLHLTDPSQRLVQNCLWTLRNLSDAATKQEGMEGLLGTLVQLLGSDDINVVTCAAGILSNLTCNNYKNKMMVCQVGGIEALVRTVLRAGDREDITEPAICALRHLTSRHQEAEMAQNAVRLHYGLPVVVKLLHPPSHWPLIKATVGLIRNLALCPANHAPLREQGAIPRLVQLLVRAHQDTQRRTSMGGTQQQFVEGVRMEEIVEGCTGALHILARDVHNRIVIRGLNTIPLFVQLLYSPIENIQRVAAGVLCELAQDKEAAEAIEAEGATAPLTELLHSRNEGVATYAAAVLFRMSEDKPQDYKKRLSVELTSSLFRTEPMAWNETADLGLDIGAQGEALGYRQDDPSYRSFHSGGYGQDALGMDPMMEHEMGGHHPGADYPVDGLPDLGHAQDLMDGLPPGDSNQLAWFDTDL

T1: p120/σ-catenin (endogenous, mouse) (mouse (endogenous in sciatic nerve and Schwann cells)) (UniProt P30999)
T1 sequence: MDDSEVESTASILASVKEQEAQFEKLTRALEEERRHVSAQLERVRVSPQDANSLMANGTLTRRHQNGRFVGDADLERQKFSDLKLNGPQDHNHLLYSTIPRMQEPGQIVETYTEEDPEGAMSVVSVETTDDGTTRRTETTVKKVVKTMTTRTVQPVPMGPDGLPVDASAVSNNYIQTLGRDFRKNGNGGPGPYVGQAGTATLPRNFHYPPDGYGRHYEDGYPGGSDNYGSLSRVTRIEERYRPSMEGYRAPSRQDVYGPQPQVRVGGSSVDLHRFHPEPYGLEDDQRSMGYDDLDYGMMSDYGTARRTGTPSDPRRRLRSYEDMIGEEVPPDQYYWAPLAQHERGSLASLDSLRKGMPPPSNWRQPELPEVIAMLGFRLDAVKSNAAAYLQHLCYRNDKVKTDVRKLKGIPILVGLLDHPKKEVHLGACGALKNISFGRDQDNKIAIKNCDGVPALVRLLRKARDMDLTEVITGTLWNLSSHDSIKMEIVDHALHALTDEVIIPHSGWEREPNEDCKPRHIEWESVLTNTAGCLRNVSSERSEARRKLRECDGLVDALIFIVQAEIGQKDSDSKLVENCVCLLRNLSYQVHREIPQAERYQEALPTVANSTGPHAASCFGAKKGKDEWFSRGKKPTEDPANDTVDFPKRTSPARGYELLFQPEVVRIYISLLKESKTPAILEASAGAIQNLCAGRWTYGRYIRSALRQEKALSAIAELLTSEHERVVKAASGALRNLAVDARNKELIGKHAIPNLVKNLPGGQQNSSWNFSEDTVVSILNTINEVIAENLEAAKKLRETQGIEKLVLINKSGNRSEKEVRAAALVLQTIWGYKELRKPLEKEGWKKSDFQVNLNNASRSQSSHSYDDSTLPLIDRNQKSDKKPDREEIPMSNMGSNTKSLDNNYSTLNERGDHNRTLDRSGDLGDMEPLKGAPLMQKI


What was measured:
[1] = biological target: T1, p120/σ-catenin (endogenous, mouse) (mouse (endogenous in sciatic nerve and Schwann cells)); assay: co-IP; endogenous proteins in sciatic nerve lysates of Pmp22+/+ mice (P10, P15, 3 and 6 months old, by panel); IP with anti-E-cadherin, anti-p120/σ-catenin or anti-β-catenin antibody, control IgG; overnight at 4°C, protein G agarose beads; immunoblot
[2] = biological target: β-catenin (endogenous, mouse) (mouse (endogenous in sciatic nerve and Schwann cells)) (UniProt Q02248); assay: co-IP; endogenous proteins in conditionally immortalized mouse Schwann cells (Pmp22+/+/SV40tg); β-catenin pulled down, E-cadherin and P120 detected
[3] = biological target: β-catenin (endogenous, mouse) (mouse (endogenous in sciatic nerve and Schwann cells)) (UniProt Q02248); assay: co-IP; endogenous proteins in sciatic nerve lysates of Pmp22+/+ mice (P10, P15, 3 and 6 months old, by panel); IP with anti-E-cadherin, anti-p120/σ-catenin or anti-β-catenin antibody, control IgG; overnight at 4°C, protein G agarose beads; immunoblot

Molecule | binding [1] | binding [2] | binding [3]
β-catenin (endogenous, mouse) (from UniProt Q02248 1-781) | binds |  | 
p120/σ-catenin (endogenous, mouse) (protein, UniProt P30999 1-938) MDDSEVESTASILASVKEQEAQFEKLTRALEEERRHVSAQLERVRVSPQDANSLMANGTLTRRHQNGRFVGDADLERQKFSDLKLNGPQDHNHLLYSTIPRMQEPGQIVETYTEEDPEGAMSVVSVETTDDGTTRRTETTVKKVVKTMTTRTVQPVPMGPDGLPVDASAVSNNYIQTLGRDFRKNGNGGPGPYVGQAGTATLPRNFHYPPDGYGRHYEDGYPGGSDNYGSLSRVTRIEERYRPSMEGYRAPSRQDVYGPQPQVRVGGSSVDLHRFHPEPYGLEDDQRSMGYDDLDYGMMSDYGTARRTGTPSDPRRRLRSYEDMIGEEVPPDQYYWAPLAQHERGSLASLDSLRKGMPPPSNWRQPELPEVIAMLGFRLDAVKSNAAAYLQHLCYRNDKVKTDVRKLKGIPILVGLLDHPKKEVHLGACGALKNISFGRDQDNKIAIKNCDGVPALVRLLRKARDMDLTEVITGTLWNLSSHDSIKMEIVDHALHALTDEVIIPHSGWEREPNEDCKPRHIEWESVLTNTAGCLRNVSSERSEARRKLRECDGLVDALIFIVQAEIGQKDSDSKLVENCVCLLRNLSYQVHREIPQAERYQEALPTVANSTGPHAASCFGAKKGKDEWFSRGKKPTEDPANDTVDFPKRTSPARGYELLFQPEVVRIYISLLKESKTPAILEASAGAIQNLCAGRWTYGRYIRSALRQEKALSAIAELLTSEHERVVKAASGALRNLAVDARNKELIGKHAIPNLVKNLPGGQQNSSWNFSEDTVVSILNTINEVIAENLEAAKKLRETQGIEKLVLINKSGNRSEKEVRAAALVLQTIWGYKELRKPLEKEGWKKSDFQVNLNNASRSQSSHSYDDSTLPLIDRNQKSDKKPDREEIPMSNMGSNTKSLDNNYSTLNERGDHNRTLDRSGDLGDMEPLKGAPLMQKI |  | binds | binds
